How the values were obtained:
[1] = tested on: skeletal muscle and heart; details: rats, s.c. minipump 28 days; formoterol 0.003-0.03, Compound A 0.01-0.1 mg/kg/day
[2] = tested on: isolated Langendorff perfused rabbit hearts; test: Automaticity in isolated Langendorff perfused rabbit hearts; details: isolated rabbit heart, n=3
[3] = tested on: Sino-Atrial node; test: Sino-Atrial node beating rate in isolated rabbit right atrium; set-up: species or system New Zealand white female rabbits; details: n=6

**Q.** With `COc1ccc(CC(C)NCC(O)c2ccc(O)c(NC=O)c2)cc1` (stereo not drawn) [Formoterol, reference compound] as the compound, how does the “skeletal muscle mass and heart mass increase (Figure 1)” value [1] read?
**A.** induces both skeletal muscle hypertrophy and heart mass increase to the same extent

**Q.** And the “Automaticity, maximum increase” value [2]?
**A.** +46%

**Q.** What about the “Sino-Atrial node beating rate, maximum increase” value [3] of the same compound?
**A.** +45%
